{"sequences": {"note": "Amino acid sequences for entries named in this document (tags omitted). A change or cut given only in a name is not applied to a line headed by its entry.", "UniProt P06400": "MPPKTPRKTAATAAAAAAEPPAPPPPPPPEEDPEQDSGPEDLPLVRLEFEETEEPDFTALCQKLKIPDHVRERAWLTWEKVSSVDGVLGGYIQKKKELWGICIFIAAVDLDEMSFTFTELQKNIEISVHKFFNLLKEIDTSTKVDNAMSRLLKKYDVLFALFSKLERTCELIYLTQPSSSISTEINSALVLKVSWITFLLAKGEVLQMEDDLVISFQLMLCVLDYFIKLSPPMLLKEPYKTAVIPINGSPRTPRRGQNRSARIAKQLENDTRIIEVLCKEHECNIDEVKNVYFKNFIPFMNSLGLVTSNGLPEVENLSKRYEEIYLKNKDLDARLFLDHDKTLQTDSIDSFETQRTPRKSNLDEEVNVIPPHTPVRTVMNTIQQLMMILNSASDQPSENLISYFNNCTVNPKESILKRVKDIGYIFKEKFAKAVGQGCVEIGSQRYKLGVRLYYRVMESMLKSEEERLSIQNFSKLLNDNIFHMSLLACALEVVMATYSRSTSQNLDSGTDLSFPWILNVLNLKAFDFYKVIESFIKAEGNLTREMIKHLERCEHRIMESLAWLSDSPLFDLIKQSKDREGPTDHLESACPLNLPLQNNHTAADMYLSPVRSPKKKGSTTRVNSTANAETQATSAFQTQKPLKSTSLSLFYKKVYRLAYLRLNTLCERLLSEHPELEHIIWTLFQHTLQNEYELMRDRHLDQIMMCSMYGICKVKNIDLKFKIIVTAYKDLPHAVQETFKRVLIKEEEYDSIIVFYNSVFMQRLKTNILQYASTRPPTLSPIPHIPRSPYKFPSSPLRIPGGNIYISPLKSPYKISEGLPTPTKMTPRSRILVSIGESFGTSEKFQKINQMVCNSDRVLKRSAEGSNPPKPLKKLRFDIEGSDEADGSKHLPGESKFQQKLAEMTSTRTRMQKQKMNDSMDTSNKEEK", "UniProt Q9Y297": "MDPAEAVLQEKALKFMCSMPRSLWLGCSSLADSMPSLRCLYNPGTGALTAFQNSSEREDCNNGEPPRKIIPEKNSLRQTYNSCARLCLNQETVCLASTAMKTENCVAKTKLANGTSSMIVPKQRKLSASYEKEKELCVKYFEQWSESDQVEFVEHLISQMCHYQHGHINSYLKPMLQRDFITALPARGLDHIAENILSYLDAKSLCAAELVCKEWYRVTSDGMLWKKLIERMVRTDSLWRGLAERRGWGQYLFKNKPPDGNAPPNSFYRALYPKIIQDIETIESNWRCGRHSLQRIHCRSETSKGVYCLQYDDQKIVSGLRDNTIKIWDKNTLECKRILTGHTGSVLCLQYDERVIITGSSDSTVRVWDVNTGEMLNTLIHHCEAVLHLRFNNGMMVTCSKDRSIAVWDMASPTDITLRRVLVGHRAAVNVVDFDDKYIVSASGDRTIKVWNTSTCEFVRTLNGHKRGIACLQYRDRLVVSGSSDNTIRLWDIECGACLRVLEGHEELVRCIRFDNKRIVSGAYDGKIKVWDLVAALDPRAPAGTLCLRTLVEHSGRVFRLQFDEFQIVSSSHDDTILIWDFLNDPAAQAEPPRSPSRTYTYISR"}, "source": "paper PMC8433397", "biological_target": "RB1 with the CK1ε phosphorylation sites S508/T510/S513 mutated (UniProt P06400)", "assay": "co-IP; in cells; lysis in EBC buffer (50 mM Tris-HCl pH 7.4, 120 mM NaCl, 0.5% NP-40), 1000 μg lysate protein with antibody-conjugated protein A/G beads or HA-/Flag-agarose beads at 4 °C, washed four times with NETN buffer, immunoblot; with or without ribociclib (Fig. 2i)", "note": "These are yes or no findings as the source states them, for the method shown. In cells and extracts the contact can be indirect. A result given as binding can be weak or reduced; the word gives no strength."}
{"substance": "βTrCP1 (co-immunoprecipitation in cells) (from UniProt Q9Y297 1-605)", "values": [{"measurement": "binding", "result": "binds"}]}
